Results are given in words; binding and its absence hold for the method and conditions named. Binding seen in cells or lysates may run through a third protein. A yes stands for co-enrichment or nearness to the bait. Other partners may have been found. Tags and fused reporters may be left off the sequences shown.
T1: PE_PGRS47 of Mycobacterium tuberculosis, HA-tagged (M. tuberculosis) (UniProt Q79FB3)
T1 sequence: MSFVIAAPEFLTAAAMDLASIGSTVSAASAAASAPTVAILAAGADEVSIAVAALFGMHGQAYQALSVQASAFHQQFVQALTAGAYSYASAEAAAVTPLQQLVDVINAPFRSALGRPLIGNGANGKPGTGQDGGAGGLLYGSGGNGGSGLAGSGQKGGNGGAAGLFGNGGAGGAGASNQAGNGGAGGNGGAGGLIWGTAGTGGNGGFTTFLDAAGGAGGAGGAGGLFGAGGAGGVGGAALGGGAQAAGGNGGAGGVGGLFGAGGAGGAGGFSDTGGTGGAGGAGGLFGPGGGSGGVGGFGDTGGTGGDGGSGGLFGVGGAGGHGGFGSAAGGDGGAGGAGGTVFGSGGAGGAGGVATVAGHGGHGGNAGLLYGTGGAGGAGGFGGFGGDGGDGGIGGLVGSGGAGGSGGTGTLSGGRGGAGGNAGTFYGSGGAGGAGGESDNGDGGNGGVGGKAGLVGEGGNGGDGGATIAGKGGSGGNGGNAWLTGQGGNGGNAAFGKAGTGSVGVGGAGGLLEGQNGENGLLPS

By UniProt entry, the sequences of proteins in these tests, tags left out. Residues count along the entry.
UniProt P56480, residues 47-529: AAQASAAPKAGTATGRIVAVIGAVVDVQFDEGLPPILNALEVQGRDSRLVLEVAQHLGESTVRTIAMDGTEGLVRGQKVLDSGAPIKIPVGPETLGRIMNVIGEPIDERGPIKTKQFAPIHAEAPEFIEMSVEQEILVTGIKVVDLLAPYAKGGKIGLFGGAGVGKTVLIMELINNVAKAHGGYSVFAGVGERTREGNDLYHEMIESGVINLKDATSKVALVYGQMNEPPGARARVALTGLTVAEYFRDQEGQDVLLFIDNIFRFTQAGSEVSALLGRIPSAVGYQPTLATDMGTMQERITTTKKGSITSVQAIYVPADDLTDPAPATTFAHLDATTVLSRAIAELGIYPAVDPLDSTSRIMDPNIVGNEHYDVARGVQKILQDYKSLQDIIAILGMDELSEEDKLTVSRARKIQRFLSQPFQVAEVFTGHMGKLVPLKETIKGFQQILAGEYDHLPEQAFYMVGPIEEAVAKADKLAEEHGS
UniProt Q8C3J5: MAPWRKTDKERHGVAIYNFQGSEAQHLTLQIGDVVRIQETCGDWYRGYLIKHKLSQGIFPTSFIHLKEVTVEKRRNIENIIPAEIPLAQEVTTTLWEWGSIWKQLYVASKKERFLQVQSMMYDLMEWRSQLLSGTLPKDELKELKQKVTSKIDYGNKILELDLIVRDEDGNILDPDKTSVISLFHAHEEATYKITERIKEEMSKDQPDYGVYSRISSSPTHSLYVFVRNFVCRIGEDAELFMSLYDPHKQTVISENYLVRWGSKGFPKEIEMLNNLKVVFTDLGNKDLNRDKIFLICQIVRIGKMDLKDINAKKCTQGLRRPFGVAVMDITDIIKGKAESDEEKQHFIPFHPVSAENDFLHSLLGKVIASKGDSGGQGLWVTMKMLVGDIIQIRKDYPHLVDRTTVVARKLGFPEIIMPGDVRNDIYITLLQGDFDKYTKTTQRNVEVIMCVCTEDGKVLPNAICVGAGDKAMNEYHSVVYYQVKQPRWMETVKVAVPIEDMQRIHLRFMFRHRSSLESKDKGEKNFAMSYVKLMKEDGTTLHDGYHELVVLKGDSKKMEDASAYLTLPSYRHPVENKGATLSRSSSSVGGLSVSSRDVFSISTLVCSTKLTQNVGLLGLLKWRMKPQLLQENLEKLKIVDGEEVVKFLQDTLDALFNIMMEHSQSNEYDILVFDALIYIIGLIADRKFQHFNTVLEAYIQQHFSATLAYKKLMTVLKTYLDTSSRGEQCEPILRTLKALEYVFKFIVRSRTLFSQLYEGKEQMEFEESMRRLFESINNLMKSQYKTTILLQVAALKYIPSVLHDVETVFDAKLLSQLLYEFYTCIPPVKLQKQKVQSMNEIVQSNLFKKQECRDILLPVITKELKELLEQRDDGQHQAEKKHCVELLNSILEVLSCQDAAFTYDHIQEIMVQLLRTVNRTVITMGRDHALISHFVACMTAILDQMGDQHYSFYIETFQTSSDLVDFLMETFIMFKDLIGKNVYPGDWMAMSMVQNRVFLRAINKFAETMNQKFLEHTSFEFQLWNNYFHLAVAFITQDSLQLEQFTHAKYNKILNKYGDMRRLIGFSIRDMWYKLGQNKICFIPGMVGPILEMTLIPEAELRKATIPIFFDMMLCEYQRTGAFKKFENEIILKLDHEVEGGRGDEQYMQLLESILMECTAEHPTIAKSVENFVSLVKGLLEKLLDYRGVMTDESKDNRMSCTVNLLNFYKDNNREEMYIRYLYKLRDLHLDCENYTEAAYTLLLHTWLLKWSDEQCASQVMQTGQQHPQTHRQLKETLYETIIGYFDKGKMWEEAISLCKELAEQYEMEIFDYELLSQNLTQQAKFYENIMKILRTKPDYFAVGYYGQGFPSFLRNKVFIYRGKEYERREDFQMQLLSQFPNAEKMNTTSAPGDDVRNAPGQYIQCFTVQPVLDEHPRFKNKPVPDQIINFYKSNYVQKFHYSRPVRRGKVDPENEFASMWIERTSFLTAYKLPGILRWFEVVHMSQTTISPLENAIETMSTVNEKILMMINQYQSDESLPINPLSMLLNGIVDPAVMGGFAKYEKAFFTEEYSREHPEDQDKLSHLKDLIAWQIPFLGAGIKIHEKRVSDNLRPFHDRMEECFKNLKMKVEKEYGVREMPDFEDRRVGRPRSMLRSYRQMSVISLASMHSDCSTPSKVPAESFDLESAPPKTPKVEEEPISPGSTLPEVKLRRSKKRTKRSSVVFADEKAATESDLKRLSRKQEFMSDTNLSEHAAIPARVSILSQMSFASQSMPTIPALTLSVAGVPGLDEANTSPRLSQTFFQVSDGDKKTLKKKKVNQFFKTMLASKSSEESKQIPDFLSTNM
UniProt P20029, residues 20-655: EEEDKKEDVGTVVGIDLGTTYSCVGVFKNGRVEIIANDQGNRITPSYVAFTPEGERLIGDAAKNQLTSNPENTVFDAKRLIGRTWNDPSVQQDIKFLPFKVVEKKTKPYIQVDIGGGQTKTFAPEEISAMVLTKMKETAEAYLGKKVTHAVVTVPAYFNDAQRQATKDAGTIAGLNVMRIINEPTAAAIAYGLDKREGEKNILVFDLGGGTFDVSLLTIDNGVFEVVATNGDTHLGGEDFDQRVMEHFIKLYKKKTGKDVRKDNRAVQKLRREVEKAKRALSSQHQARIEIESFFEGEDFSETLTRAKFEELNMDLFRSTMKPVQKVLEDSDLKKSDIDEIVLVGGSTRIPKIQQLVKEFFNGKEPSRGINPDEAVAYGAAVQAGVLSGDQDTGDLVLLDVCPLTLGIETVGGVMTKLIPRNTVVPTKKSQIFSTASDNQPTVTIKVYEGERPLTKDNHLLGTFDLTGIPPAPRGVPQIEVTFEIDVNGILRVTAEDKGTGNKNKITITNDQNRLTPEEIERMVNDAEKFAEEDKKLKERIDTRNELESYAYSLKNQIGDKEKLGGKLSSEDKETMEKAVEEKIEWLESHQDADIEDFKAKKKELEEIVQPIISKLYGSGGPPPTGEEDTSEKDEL
UniProt P08113, residues 22-802: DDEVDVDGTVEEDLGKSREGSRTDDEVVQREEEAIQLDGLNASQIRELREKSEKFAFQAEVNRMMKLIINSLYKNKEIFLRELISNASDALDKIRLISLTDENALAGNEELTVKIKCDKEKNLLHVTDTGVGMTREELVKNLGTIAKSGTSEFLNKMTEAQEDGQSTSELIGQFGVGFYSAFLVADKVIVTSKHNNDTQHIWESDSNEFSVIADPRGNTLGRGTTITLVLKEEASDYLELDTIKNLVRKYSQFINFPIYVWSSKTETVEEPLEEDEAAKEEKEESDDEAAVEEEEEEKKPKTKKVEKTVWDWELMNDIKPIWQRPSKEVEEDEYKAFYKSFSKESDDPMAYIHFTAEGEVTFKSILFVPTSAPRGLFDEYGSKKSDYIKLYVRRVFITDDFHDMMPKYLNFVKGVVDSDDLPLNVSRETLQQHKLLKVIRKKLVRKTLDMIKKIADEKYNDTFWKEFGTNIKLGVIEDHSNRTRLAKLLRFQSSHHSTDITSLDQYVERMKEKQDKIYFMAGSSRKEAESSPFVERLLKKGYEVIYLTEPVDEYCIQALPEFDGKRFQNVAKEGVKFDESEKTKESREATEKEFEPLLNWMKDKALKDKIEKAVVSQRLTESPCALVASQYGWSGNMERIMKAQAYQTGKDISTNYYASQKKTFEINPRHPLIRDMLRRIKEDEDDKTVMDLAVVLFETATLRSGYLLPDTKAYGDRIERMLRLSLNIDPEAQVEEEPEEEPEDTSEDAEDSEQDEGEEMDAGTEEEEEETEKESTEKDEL
UniProt P16110: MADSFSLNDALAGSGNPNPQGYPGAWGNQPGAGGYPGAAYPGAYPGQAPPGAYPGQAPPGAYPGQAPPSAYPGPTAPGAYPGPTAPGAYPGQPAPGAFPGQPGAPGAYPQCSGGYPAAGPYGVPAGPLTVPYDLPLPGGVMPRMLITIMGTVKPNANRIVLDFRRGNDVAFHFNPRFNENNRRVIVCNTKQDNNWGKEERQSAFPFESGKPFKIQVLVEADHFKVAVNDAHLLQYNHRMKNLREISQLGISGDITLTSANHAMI
UniProt P62821: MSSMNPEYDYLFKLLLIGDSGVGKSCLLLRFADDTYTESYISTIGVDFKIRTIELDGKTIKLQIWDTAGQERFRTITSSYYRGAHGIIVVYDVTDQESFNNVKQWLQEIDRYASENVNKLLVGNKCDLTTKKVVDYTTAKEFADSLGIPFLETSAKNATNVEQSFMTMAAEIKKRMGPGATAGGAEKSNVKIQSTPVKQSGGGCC

T2: PE_PGRS20 of Mycobacterium tuberculosis, HA-tagged (M. tuberculosis) (UniProt P9WIF9)
T2 sequence: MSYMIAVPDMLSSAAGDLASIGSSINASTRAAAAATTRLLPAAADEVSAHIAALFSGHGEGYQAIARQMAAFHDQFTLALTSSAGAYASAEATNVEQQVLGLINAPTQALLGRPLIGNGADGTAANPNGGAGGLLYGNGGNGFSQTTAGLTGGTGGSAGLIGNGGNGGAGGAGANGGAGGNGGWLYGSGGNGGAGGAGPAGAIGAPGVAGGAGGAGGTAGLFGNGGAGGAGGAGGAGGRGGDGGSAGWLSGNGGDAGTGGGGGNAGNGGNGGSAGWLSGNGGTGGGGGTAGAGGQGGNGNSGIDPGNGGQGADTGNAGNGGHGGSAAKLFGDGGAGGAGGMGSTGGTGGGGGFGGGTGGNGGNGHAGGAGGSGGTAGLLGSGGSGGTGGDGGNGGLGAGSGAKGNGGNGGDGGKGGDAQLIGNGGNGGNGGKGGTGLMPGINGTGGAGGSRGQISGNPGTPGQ


Key:
[1] = molecular target: T1, PE_PGRS47 of Mycobacterium tuberculosis, HA-tagged (M. tuberculosis); test: affinity purification with mass spectrometry
[2] = molecular target: T2, PE_PGRS20 of Mycobacterium tuberculosis, HA-tagged (M. tuberculosis); test: affinity purification with mass spectrometry

| Molecule | binding [1] | binding [2] |
| --- | --- | --- |
| ATP synthase subunit beta, mitochondrial (from UniProt P56480 47-529) | binds | binds |
| Dedicator of cytokinesis protein 2 (from UniProt Q8C3J5 1-1828) |  | binds |
| Endoplasmic reticulum chaperone BiP (from UniProt P20029 20-655) | binds | binds |
| Endoplasmin (from UniProt P08113 22-802) | binds | binds |
| Galectin-3 (from UniProt P16110 1-264) | binds |  |
| Ras-related protein Rab-1A (from UniProt P62821 1-205) | binds | binds |
| 14-3-3 protein gamma (protein, UniProt P61982 1-247) MVDREQLVQKARLAEQAERYDDMAAAMKNVTELNEPLSNEERNLLSVAYKNVVGARRSSWRVISSIEQKTSADGNEKKIEMVRAYREKIEKELEAVCQDVLSLLDNYLIKNCSETQYESKVFYLKMKGDYYRYLAEVATGEKRATVVESSEKAYSEAHEISKEHMQPTHPIRLGLALNYSVFYYEIQNAPEQACHLAKTAFDDAIAELDTLNEDSYKDSTLIMQLLRDNLTLWTSDQQDDDGGEGNN | binds | binds |
| Lysozyme C-1 (protein, UniProt P17897 19-148) KVYNRCELARILKRNGMDGYRGVKLADWVCLAQHESNYNTRATNYNRGDRSTDYGIFQINSRYWCNDGKTPRSKNACGINCSALLQDDITAAIQCAKRVVRDPQGIRAWVAWRTQCQNRDLSQYIRNCGV | binds |  |
| Myb-binding protein 1A (protein, UniProt Q7TPV4 1-1344) MAEMKSPTKAEPATPAEAAQSDRHSLLEHSREFLDFFWDIAKPDQETRLRATEKLLEYLRTRPNDSEMKYALKRLITGLGVGREAARPCYSLALAQLLQSFEDIPLCDILDQIQEKYSLQAMNKAMMRPSLFANLFGVLALFQSGRLVKDKEALMKSVQLLKILSQHPNHLQGQPIKALVDILSEVPESMFQEILPKVLKGNMKVILRSPKYLELFLLAKQRVPTKLESLMGSVDLFSEDNIPSLVNILKVAANSVKKEHKLPNVALDLLRLALKESRFELFWKKVLEEGLLKNPSWTSSYMCFRLLGASLPLLSEEQLQLVMRGDLIRHFGENMVISKPQNLFKIIPEISTYVGTFLEGCQDDPKRQLTMMVAFTTITNQGLPVMPTFWRVTRFLNAEALQSYVAWLRDMFLQPDLNSLVDFSTANQKRAQDASLNVPERAVFRLRKWIIHRLVSLVDHLHLEKDEAVVEQIARFCLFHAFFKTKKATPQIPETKQHFSFPLDDRNRGVFVSAFFSLLQTLSVKFRQTPDLAENGKPWTYRLVQLADMLLNHNRNVTSVTSLTTQQRQAWDQMMSTLKELEARSSETRAIAFQHLLLLVGLHIFKSPAESCDVLGDIQTCIKKSMEQNPRRSRSRAKASQEPVWVEVMVEILLSLLAQPSNLMRQVVRSVFGHICPHLTPRCLQLILAVLSPVTNEDEDDNVVVTDDADEKQLQHGEDEDSDNEDNKNSESDMDSEDGEESEEEDRDKDVDPGFRQQLMEVLKAGNALGGVDNEEEEELGDEAMMALDQNLASLFKEQKMRIQARNEEKNKLQKEKKLRRDFQIRALDLIEVLVTKQPEHPLILELLEPLLNVIQHSMRSKGSTKQEQDLLHKTARIFMHHLCRARRYCHEVGPCAEALHAQVERLVQQAGSQADASVALYYFNASLYLLRVLKGNTNKRHQDGHKLHGADTEDSEDQAANCLDLDFVTRVYSASLESLLTKRNSSLTVPMFLSLFSRYPVICKNLLPVLAQHVAGPSRPRHQAQACLMLQKTLSARELRVCFEDPEWEQLITQLLGKATQTLQTLGEAQSKGEHQKELSILELLNTLLRTVNHEKLSVDLTAPLGVLQSKQQKLQQSLQQGNHSSGSNRLYDLYWQAMRMLGVQRPKSEKKNAKDIPSDTQSPVSTKRKKKGFLPETKKRKKLKSEGTTPEKNAASQQDAVTEGAMPAATGKDQPPSTGKKKRKRVKASTPSQVNGITGAKSPAPSNPTLSPSTPAKTPKLQKKKEKLSQVNGATPVSPIEPESKKHHQEALSTKEVIRKSPHPQSALPKKRARLSLVSRSPSLLQSGVKKRRVASRRVQTP |  | binds |
| Protein flightless-1 homolog (protein, UniProt Q9JJ28 1-1271) MEATGVLPFVRGVDLSGNDFKGGYFPENVKAMTSLRWLKLNRTGLCYLPEELAALQKLEHLSVSHNHLTTLHGELSSLPSLRAIVARANSLKNSGVPDDIFKLDDLSVLDLSHNQLTECPRELENAKNMLVLNLSHNGIDSIPNQLFINLTDLLYLDLSENRLESLPPQMRRLVHLQTLVLNGNPLLHAQLRQLPAMMALQTLHLRNTQRTQSNLPTSLEGLSNLSDVDLSCNDLTRVPECLYTLPSLRRLNLSSNQIAELSLCIDQWVHLETLNLSRNQLTSLPSAICKLTKLKKLYLNSNKLDFDGLPSGIGKLTSLEEFMAANNNLELIPESLCRCPKLKKLVLNKNRLVTLPEAIHFLTEIQVLDVRENPSLVMPPKPADRTAEWYNIDFSLQNQLRLAGASPATVAAAAAVGSGSKDPLARKMRLRRRKDSAQDVQAKQVLKGMSDVAQEKNKNQEESIDARAPGGKVRRWDQGLEKPRLDYSEFFTEDVGQLPGLTIWQIENFVPVLVEEAFHGKFYEADCYIVLKTFLDDSGSLNWEIYYWIGGEATLDKKACSAIHAVNLRNYLGAECRTVREEMGDESEEFLQVFDNDISYIEGGTASGFYTVEDTHYVTRMYRVYGKKNIKLEPVPLKGSSLDPRFVFLLDQGLDIYVWRGAQATLSNTTKARLFAEKINKNERKGKAEITLLVQGQEPPGFWDVLGGEPSEIKNHVPDDFWPPQPKLYKVGLGLGYLELPQINYKLSVEHKKRPKVELMPGMRLLQSLLDTRCVYILDCWSDVFIWLGRKSPRLVRAAALKLGQELCGMLHRPRHTVVSRSLEGTEAQVFKAKFKNWDDVLTVDYTRNAEAVLQGQGLSGKVKRDTEKTDQMKADLTALFLPRQPPMPLAEAEQLMEEWNEDLDGMEGFVLEGRKFTRLPEEEFGHFYTQDCYVFLCRYWVPVEYEEEEKTEDKEGKASAEAREGEEAAAEAEEKQPEEDFQCIVYFWQGREASNMGWLTFTFSLQKKFESLFPGKLEVVRMTQQQENPKFLSHFKRKFIIHRGKRKVTQGTLQPTLYQIRTNGSALCTRCIQINTDSSLLNSEFCFILKVPFESEDNQGIVYAWVGRASDPDEAKLAEDILNTMFDASYSKQVINEGEEPENFFWVGIGAQKPYDDDAEYMKHTRLFRCSNEKGYFAVTEKCSDFCQDDLADDDIMLLDNGQEVYMWVGTQTSQVEIKLSLKACQVYIQHTRSKEHERPRRLRLVRKGNEQRAFTRCFHAWSTFRQAPA |  | binds |
| Phosphate carrier protein, mitochondrial (protein, UniProt Q8VEM8 46-357) AVEEYSCEFGSMKYYALCGFGGVLSCGLTHTAVVPLDLVKCRMQVDPQKYKGIFNGFSITLKEDGVRGLAKGWAPTLIGYSMQGLCKFGFYEVFKALYSNILGEENTYLWRTSLYLASSASAEFFADIALAPMEAAKVRIQTQPGYANTLREAVPKMYKEEGLNAFYKGVAPLWMRQIPYTMMKFACFERTVEALYKFVVPKPRSECTKAEQLVVTFVAGYIAGVFCAIVSHPADSVVSVLNKEKGSTASQVLQRLGFRGVWKGLFARIIMIGTLTALQWFIYDSVKVYFRLPRPPPPEMPESLKKKLGLTE | binds | binds |
| MICOS complex subunit Mic19 (protein, UniProt Q9CRB9 1-227) MGGTASTRRVTFEADENENITVVKGIRLSENVIDRMKESSPSGSKSQRYSSVYGASVSDEDLKRRVAEELALEQAKKESEHQRRLKQARDLERERAAANEQLTRAVLRERISSEEERMKAKHLARQLEEKDRVMRKQDAFYKEQLARLEERSSEFYKVTTEEYQKAAEEVEAKFKRYEYHPVCADLQTKILQCYRQNTQQTLSCSALASQYMHCVNHAKQSMLEKGG | binds | binds |

Reference: article PMC8386380
